# PubChem BioAssay AID1259405, NCATS | 2018
# Purpose: 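Silenced genes that increase secreted GFP made by CHO cells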 (primary screen)
# System: Chinese hamster CHO-K1 ovary cells with stable secreted eGFP expression
# Reagent: single siRNA against mouse genes, 0.8 pmol siRNA per well (2 µl of 400 nM stock)
# Duration: 3 days
# Measured: 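Percent of the per-plate non-targeting control median for intracellular GFP per well by laser scanning cytometry and for cell viability by ATP luminescence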
# Scale: GFP, % of control: higher = more GFP per well, higher productivity; viability (ATP), % of control: higher = more viable cells (more ATP)
# Rule for the call: 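a knock-down is called active if GFP reaches 120% or more of non-targeting control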
# The whole screen tested about 50,000 reagents; this is a random part of them. About 4,000 of them (8%) were called active. 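Mouse siRNA library applied to hamster cells; one well for each siRNA.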 Entries without a mark were called inactive. Reagents against one gene are numbered here.
Target gene,siRNA no.,"GFP, % of control","viability (ATP), % of control"
Tmtc1,1,135 (active),131
Tmtc1,2,95.7,184
Tmtc1,3,79.6,108
Bet1,1,91.8,92.4
Bet1,2,84.1,77.7
Ugt2a2,1,64.5,137
Ugt2a2,2,80.9,118
Ugt2a2,3,82.3,123
Dnajc6,1,163 (active),77.1
Dnajc6,2,85.8,69.8
Dnajc6,3,106,94.2
Inpp5d,1,136 (active),106
Inpp5d,2,81.5,100
Inpp5d,3,98.5,93.9
Suclg2,1,90.2,57.1
Suclg2,2,68,79.7
Suclg2,3,55,46.7
Pbxip1,1,56.1,32.6
Pbxip1,2,26.4,24
Pbxip1,3,58.9,56.6
Ms4a6b,1,109,79.2
Ms4a6b,2,79.5,65.3
Ms4a6b,3,92.8,86
Ankrd27,1,103,85.9
Ankrd27,2,70.7,66.6
Ankrd27,3,67.6,69.6
Hbb-b1,1,63.8,50.4
Hbb-b1,2,126 (active),96
Hbb-b1,3,93,64.4
Lgi4,1,130 (active),92.4
Lgi4,2,88.2,78.7
Lgi4,3,61.7,53.1
Gcat,1,34.4,80.7
Gcat,2,76.5,79.3
Gcat,3,82.9,103
Rhbdd2,1,68,68.5
Rhbdd2,2,45,38.4
Rhbdd2,3,87.9,53.2
Rhbdd2,4,67.5,78.7
Rhbdd2,5,45,55.3
Rhbdd2,6,85.2,103
Tm2d2,1,83.7,71
Tm2d2,2,69.1,66.6
Tm2d2,3,100,70.1
Plekhf1,1,101,58.3
Plekhf1,2,81.7,69.4
Plekhf1,3,86.3,51.4
Hr,1,98.3,84.7
Hr,2,74.9,84.5
Hr,3,82.6,99

Looked up above:
Ms4a6b #3, GFP, % of control → 92.8
Value of Plekhf1 #1 in “GFP, % of control”: 101
Result of Hbb-b1 #3 in “viability (ATP), % of control”: 64.4
Rhbdd2 #6, GFP, % of control: 85.2
For “GFP, % of control”, Rhbdd2 #2 has 45
Value of Ankrd27 #3 under “GFP, % of control”: 67.6

The list goes on:
Target gene,siRNA no.,"GFP, % of control","viability (ATP), % of control"
Or5an9,1,68.8,59.8
Or5an9,2,41.9,50
Or5an9,3,128 (active),81.4
Cfap61,1,86.5,80.7
Cfap61,2,84.3,46.5
Cfap61,3,69.1,88.8
Nfu1,1,86.1,79.4
Nfu1,2,81.8,78.1
Nfu1,3,111,101
Lars2,1,73.5,81
Lars2,2,69.7,77.2
Kti12,1,80.4,100
Kti12,2,87,86.8
Ctdp1,1,59.5,78
Ctdp1,2,116,83.8
Ctdp1,3,88,63.5
Or6c207,1,68.5,54.7
Or6c207,2,67.7,82.3
Or6c207,3,62.5,82.1
Smo,1,67.9,51.8
Smo,2,51.8,51.8
Smo,3,52.8,49.6
Med23,1,69.9,72.6
Med23,2,113,81
Med23,3,60.4,102
Lrrn2,1,86.8,89.4
Lrrn2,2,51.4,55.1
Lrrn2,3,32.2,24.3
Rtn4rl1,1,142 (active),81.9
Rtn4rl1,2,87.8,71.3
Rtn4rl1,3,80.2,72.6
Prrt3,1,76.4,71.4
Prrt3,2,78.9,60.4
Prrt3,3,108,59.2
